According to US12225904B2, “Phenylpyrazole compound and method for controlling plant disease” (SUMITOMO CHEMICAL COMPANY, LIMITED, priority 2019, dated 2025):
Some results were stated once for a whole list of compounds, not compound by compound. At least one structure is not confirmed: it was looked up by name or label, or the drawing left a doubt.

Experiments:
[1] = system: barley scald (Rhynchosporium secalis); test: Test Example 16: control test against barley scald, foliar spray on potted barley; assay type: in vivo; conditions: 200 ppm foliar spray; barley cv NISHINOHOSHI; spores inoculated 1 day after spraying
[2] = system: Septoria leaf blotch (Septoria tritici); test: Test Example 9: control test against Septoria leaf blotch, foliar spray on potted wheat; assay type: in vivo; conditions: 200 ppm foliar spray; wheat cv Apogee; spores inoculated 4 days after spraying
[3] = system: Septoria leaf blotch (Septoria tritici); test: Test Example 8: control test against Septoria leaf blotch, foliar spray on potted wheat; assay type: in vivo; conditions: 500 ppm foliar spray; wheat cv Apogee; spores inoculated 4 days after spraying
[4] = system: soybean rust (Phakopsora pachyrhizi) spores; test: Test Example 22: control test against soybean rust, spore germination on agar in petri dish; assay type: cell-based; conditions: 10 ppm as the treated concentration; 23° C., 1 day
[5] = system: soybean rust (Phakopsora pachyrhizi); test: Test Example 5: control test against soybean rust, foliar spray on potted soybean; assay type: in vivo; conditions: 200 ppm foliar spray; soybean cv Kurosengoku; spores inoculated 2 to 5 days after spraying; observed after 10 to 14 days

| Structure (SMILES) | lesion area compared to the lesion area in an untreated barley [1] | lesion area compared to the lesion area in an untreated wheat [2] | lesion area compared to the lesion area in an untreated wheat [3] | number of germinated spores compared to the number of germinated spores in an untreated group [4] | lesion area compared to the lesion area in an untreated soybean [5] |
| --- | --- | --- | --- | --- | --- |
| CCS(=O)(=O)n1ccc(-c2ccc(C#N)cc2)n1 [compound 1] | ≤ 30% | ≤ 30% |  |  |  |
| CS(=O)(=O)n1ccc(-c2ccc(Cl)cc2)n1 [compound 2] |  | ≤ 30% | ≤ 30% | ≤ 40% | ≤ 30% |
| CCCS(=O)(=O)n1ccc(-c2ccc(Cl)cc2)n1 [compound 4] |  | ≤ 30% | ≤ 30% | ≤ 40% | ≤ 30% |
| CCCCS(=O)(=O)n1ccc(-c2ccc(Cl)cc2)n1 [compound 5] | ≤ 30% |  |  |  | ≤ 30% |
| O=S(=O)(CCCCl)n1ccc(-c2ccc(Cl)cc2)n1 [compound 7] | ≤ 30% | ≤ 30% |  | ≤ 40% | ≤ 30% |
| CCS(=O)(=O)n1ccc(-c2ccc(F)cc2)n1 [compound 9] | ≤ 30% |  |  |  | ≤ 30% |
| O=S(=O)(C1CC1)n1ccc(-c2ccc(Cl)cc2)n1 [compound 15] | ≤ 30% | ≤ 30% | ≤ 30% |  |  |
| CCS(=O)(=O)n1ccc(-c2ccc(I)cc2)n1 [compound 26] | ≤ 30% | ≤ 30% | ≤ 30% |  |  |
| CCS(=O)(=O)n1ccc(-c2ccc(C3CC3)cc2)n1 [compound 29] | ≤ 30% | ≤ 30% |  | ≤ 40% | ≤ 30% |
| CN(C)S(=O)(=O)n1ccc(-c2ccc(Cl)cc2)n1 [compound 30] |  | ≤ 30% |  | ≤ 40% |  |
| CCS(=O)(=O)n1ccc(-c2ccc([N+](=O)[O-])cc2)n1 [compound 32] | ≤ 30% |  |  |  |  |
| CCS(=O)(=O)n1ccc(-c2ccc(C)c(Cl)c2)n1 [compound 34] |  | ≤ 30% | ≤ 30% | ≤ 40% | ≤ 30% |
| CCCS(=O)(=O)n1ccc(-c2ccc(Br)cc2)n1 [compound 40] |  | ≤ 30% | ≤ 30% |  | ≤ 30% |
| CCS(=O)(=O)n1ccc(-c2ccc(F)c(Cl)c2)n1 [compound 45] |  | ≤ 30% | ≤ 30% |  | ≤ 30% |
| CCS(=O)(=O)n1ccc(-c2ccc(Cl)c(F)c2)n1 [compound 47] |  | ≤ 30% | ≤ 30% |  | ≤ 30% |
| CCS(=O)(=O)n1ccc(-c2ccc(F)c(C)c2)n1 [compound 49] |  | ≤ 30% | ≤ 30% |  | ≤ 30% |
| CCS(=O)(=O)n1ccc(-c2ccc(Br)c(F)c2)n1 [compound 51] |  | ≤ 30% | ≤ 30% |  | ≤ 30% |

| Structure (SMILES) | lesion area compared to the lesion area in an untreated barley [1] | lesion area compared to the lesion area in an untreated wheat [2] | lesion area compared to the lesion area in an untreated wheat [3] | number of germinated spores compared to the number of germinated spores in an untreated group [4] | lesion area compared to the lesion area in an untreated soybean [5] |
| --- | --- | --- | --- | --- | --- |
| CN(C)S(=O)(=O)n1ccc(-c2ccc(Br)c(F)c2)n1 [compound 58] |  | ≤ 30% | ≤ 30% |  | ≤ 30% |
| CCCS(=O)(=O)n1ccc(-c2ccc(Br)c(F)c2)n1 [compound 59] |  | ≤ 30% | ≤ 30% |  | ≤ 30% |
| CCCS(=O)(=O)n1ccc(-c2ccc(Cl)c(F)c2)n1 [compound 62] |  |  |  | ≤ 40% | ≤ 30% |
| CCCS(=O)(=O)n1ccc(-c2ccc(C)c(F)c2)n1 [compound 63] |  |  | ≤ 30% | ≤ 40% | ≤ 30% |
| CN(C)S(=O)(=O)n1ccc(-c2ccc(Cl)c(F)c2)n1 [compound 68] |  | ≤ 30% | ≤ 30% |  | ≤ 30% |
| CS(=O)(=O)n1ccc(-c2cc(F)c(Br)c(F)c2)n1 [compound 77] |  | ≤ 30% | ≤ 30% |  | ≤ 30% |
| O=S(=O)(N1CCCC1)n1ccc(-c2cc(F)c(Br)c(F)c2)n1 [compound 79] |  | ≤ 30% | ≤ 30% |  | ≤ 30% |
| CCS(=O)(=O)n1ccc(-c2ccc3c(c2)OC(F)(F)O3)n1 [compound 104] |  | ≤ 30% | ≤ 30% |  | ≤ 30% |
| CCS(=O)(=O)n1ccc(-c2ccc(Cl)cc2F)n1 [compound 110] |  | ≤ 30% | ≤ 30% |  |  |
| CCS(=O)(=O)n1ccc(-c2ccc(C(F)F)cc2)n1 [compound 111] |  | ≤ 30% |  | ≤ 40% | ≤ 30% |
| CCS(=O)(=O)n1ccc(-c2ccc(C(F)(F)F)c(Cl)c2)n1 [compound 112] |  |  | ≤ 30% | ≤ 40% |  |
| CCCS(=O)(=O)n1ccc(-c2cccc(OCC3CC3)c2)n1 [compound 154] |  |  |  | ≤ 40% |  |
| CCCOc1cccc(-c2ccn(S(=O)(=O)CC)n2)c1 [compound 155] |  |  |  | ≤ 40% |  |
| CCCOc1cccc(-c2ccn(S(=O)(=O)CCC)n2)c1 [compound 156] |  |  |  | ≤ 40% |  |
| CCCS(=O)(=O)n1ccc(-c2cccc(OC(C)C)c2)n1 [compound 158] |  |  |  | ≤ 40% |  |
| CCCS(=O)(=O)n1ccc(-c2cccc(OCc3ccccc3C#N)c2)n1 [compound 172] |  |  |  | ≤ 40% |  |
